# Values from PubChem BioAssay AID1159584 (Peter MacCallum Cancer Centre, 2016)
# Screen: 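Genes whose loss is lethal only together with E-cadherin loss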 (primary screen)
# System: human MCF10A breast epithelial cells, parental and CDH1-null
# Knock-down reagent: siRNA against human genes
# Read-out: 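Cell viability by CellTiter-Glo ATP luminescence, each line scaled to the mean of mock wells across plates, then CDH1-null over parental ratio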
# Direction: CDH1-null / parental viability ratio: higher = CDH1-null cells survive relatively better than parental
# Here is a random part of about 18,000 reagents. Not all columns of the deposit are shown. The record does not give: the amount of reagent, the time to read-out.
gene knocked down,CDH1-null / parental viability ratio
CPA6,1.14
GPC3,0.54
PAH,0.85
PLPP7,1.49
SRR,0.89
IPO13,0.87
SLC29A2,0.78
TBC1D9B,1.01
IHH,1.12
SIN3B,1.87
GAD2,1.05
TMEM182,1.1
CPO,0.91
TNFRSF11A,0.86
WBP1L,1
GPR141,0.78
CCL16,0.76
SMC1A,0.98
SLC33A1,0.98
WSB2,0.86
TOB2,1.07
ZNF121,0.98
RAB11FIP5,0.74
CDH7,0.95
SYBU,1.68
TRPM4,1.26
GPR45,0.91
SKP2,0.97
SSTR4,0.78
AP3D1,0.97
ARF3,0.82
SMG7,1.06
LECT2,1.19
FBN2,1.03
ASCC2,1.03
TEC,0.95
SLC35G1,1.06
DDX28,1.15
POU3F3,1.15
TRIML1,0.94
ZBED8,1
ZC4H2,1.19
IRAK1,1.03
TMEM164,1.74
CDH19,1.07
POLD2,0.99

Sorted by “CDH1-null / parental viability ratio” (high to low): some entries from above.
gene knocked down,CDH1-null / parental viability ratio
TOB2,1.07
ZNF121,0.98
CDH7,0.95
WSB2,0.86
RAB11FIP5,0.74
